Data published in patent US11965039B2, “Compstatin analogues and their medical uses” (priority 2018, dated 2024).
Not every detail of the peptide structures is certain; ends, links or a residue may be inferred. Starred links: 1 amine or outer side, 2 acyl side, 3 side chain; linkers in the order of their positions; H or OH if unused. Positions of bridges follow the written chain, without caps; N, C: chain ends. Non-standard residues stand in square brackets, D forms with d. Residues, ends and D or L forms follow the SMILES beside them. Groups on a side chain read outwards from the residue. *: point of attachment. Trp(1-Me) = Cn1cc(C[C@H](N)C(=O)O)c2ccccc21; C18 diacid = O=C(O)CCCCCCCCCCCCCCCCC(=O)*; γGlu = O=C(O)[C@H](CCC(=O)[*:2])N[*:1]; Sar = CNCC(=O)O

Test system: classical complement pathway
Test: In vitro haemolysis assay (inhibition of classical complement pathway)
Assay type: cell-based
Conditions: human serum, sensitized sheep red blood cells; Table 3, given as upper bounds; read-out: IC50, inhibition of hemolysis
Description: The in vitro effect of the compounds of the present invention was assessed by measuring their inhibitory effect of the classical complement pathway in a haemolysis assay. Briefly, compounds of the present invention and reference compounds were dissolved in DMSO and diluted in Tris/Casein Assay Buffer (10 mM Tris, 145 mM NaCl, 0.5 mM MgCl2, 0.15 mM CaCl2), and 0.1% W/V Casein, adjusted to pH 7.4) as 9-point serial dilutions in a 96 well plate. Sensitized sheep red blood cells (RBC) coated with rabbit anti-sheep erythrocyte antiserum (Complement Technology, Inc., TX, USA) were washed in Tris/Casein Assay Buffer. […] from each well of diluted compound was added to a 96-well plate containing 50 μL diluted human serum (Complement Technology, Inc., TX, USA) and incubated for 15 minutes at room temperature. The serum dilution factor was optimized for every serum batch to obtain 70-90% of maximal haemolysis using the protocol. Then 50 μL sensitized sheep red blood cells were added to all wells (10^7 per well). After 30 minutes of incubation at 37 QC with gentle agitation, the reaction was stopped by addition of 50 μL Tris STOP Buffer per well (10 mM EDTA, 10 mM Tris, 145 mM NaCl adjusted to pH 7.4). The RBCs were then removed by centrifugation and the resulting supernatant measured for hemolysis by absorbance at 405 nm. […]

SMILES | IC50 [nM]
CC[C@H](C)[C@@H]1NC(=O)[C@@H](NC(=O)[C@H](Cc2ccc(O)cc2)NC(=O)[C@H](C)NC(=O)[C@H](CO)NC(C)=O)CSSC[C@@H](C(=O)N(C)CC(=O)N[C@@H](CCC(=O)O)C(=O)N[C@@H](CCCCNC(=O)CC[C@H](NC(=O)CNC(=O)[C@H](CCCCN)NC(=O)CC[C@H](NC(=O)CCCCCCCCCCCCCCCCC(=O)O)C(=O)O)C(=O)O)C(N)=O)NC(=O)[C@H](CCCNC(=N)N)NC(=O)[C@H](Cc2c[nH]cn2)NC(=O)[C@H](CCC(=O)O)NC(=O)CNC(=O)[C@H](Cc2c[nH]c3ccccc23)NC(=O)[C@H](CC(=O)O)NC(=O)[C@H](CCC(N)=O)NC(=O)[C@H](Cc2cn(C)c3ccccc23)NC1=O [Compound 105] (Ac-SAYCI[Trp(1-Me)]QDWGEHRC[Sar]EK([γGlu-Gly-Lys-γGlu-C18 diacid])-NH2; disulfide 4-14) | < 100
CC[C@H](C)[C@@H]1NC(=O)[C@@H](NC(=O)[C@H](Cc2ccc(O)cc2)NC(=O)[C@H](CCC(=O)O)NC(=O)[C@H](CO)NC(C)=O)CSSC[C@@H](C(=O)N(C)CC(=O)N[C@@H](CCC(=O)O)C(=O)NCC(=O)N[C@@H](CCC(=O)O)C(=O)N[C@@H](CCCCNC(=O)CC[C@H](NC(=O)[C@H](CCCCN)NC(=O)CC[C@H](NC(=O)CCCCCCCCCCCCCCCCC(=O)O)C(=O)O)C(=O)O)C(N)=O)NC(=O)[C@H](CCCNC(=N)N)NC(=O)[C@H](Cc2c[nH]cn2)NC(=O)[C@H](CCC(=O)O)NC(=O)CNC(=O)[C@H](Cc2c[nH]c3ccccc23)NC(=O)[C@H](CC(=O)O)NC(=O)[C@H](CCC(N)=O)NC(=O)[C@H](Cc2cn(C)c3ccccc23)NC1=O [Compound 116] (Ac-SEYCI[Trp(1-Me)]QDWGEHRC[Sar]EGEK([γGlu-Lys-γGlu-C18 diacid])-NH2; disulfide 4-14) | < 500
